PubChem BioAssay AID1224830 | NIAID | 2016
In all, the deposit lists about 18,000 reagents; shown is an unselected part. About 2,900 of them (16%) were called active. 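Calls are made per well; low scores hint the gene aids the LPS response, high scores that it dampens it.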 Repeated entries: four replicate wells of each siRNA pool. Reagent sequences are not shown.

- Screen: 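Genes whose knock-down alters the TNF-alpha reporter response to LPS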 (primary screen)
- System: human THP-1 monocytic leukaemia cells, TNF dual-luciferase reporter clone, PMA-differentiated to macrophage-like cells
- Reagents: siRNA pool against human genes, 50 nM
- Time to read-out: LPS for 4 h, given about 3 days after siRNA transfection
- Challenge: bacterial LPS (TLR4 ligand), 10 ng/ml
- Measurement: 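Ratio of firefly to renilla light, scaled to the plate median and expressed as a robust z-score per replicate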
- Direction: TNF reporter robust z-score: higher = stronger TNF reporter response to LPS
- Call rule: 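Each well counts as active if its z-score is over 2.8 or under -1.5; controls are left without a call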

YPEL5 (yippee like 5) scored TNF reporter robust z-score -1.5; inactive. With knock-down of YPEL5 (yippee like 5), the record shows TNF reporter robust z-score -1.42; inactive. Against YPEL5 (yippee like 5), the entry reads TNF reporter robust z-score -1.19; inactive. After knock-down of YPEL5 (yippee like 5), the screen gave TNF reporter robust z-score -1.35; inactive. After knock-down of IFIT2 (interferon induced protein with tetratricopeptide repeats 2), the screen gave TNF reporter robust z-score -0.43; inactive. Against IFIT2 (interferon induced protein with tetratricopeptide repeats 2) the deposit lists TNF reporter robust z-score -0.18; inactive.

After knock-down of IFIT2 (interferon induced protein with tetratricopeptide repeats 2), the screen gave TNF reporter robust z-score -0.62; inactive. Knock-down of IFIT2 (interferon induced protein with tetratricopeptide repeats 2) resulted in: TNF reporter robust z-score -0.31; inactive.

Part of the list above, reformatted:
| gene symbol | TNF reporter robust z-score | Call |
| --- | --- | --- |
| IFIT2 (interferon induced protein with tetratricopeptide repeats 2) | -0.18 | inactive |
| IFIT2 (interferon induced protein with tetratricopeptide repeats 2) | -0.62 | inactive |

The list goes on.
For SPC24 (SPC24 component of NDC80 kinetochore complex), the values are TNF reporter robust z-score 0.17; inactive. After knock-down of SPC24 (SPC24 component of NDC80 kinetochore complex) the results were TNF reporter robust z-score 1.54; inactive. With knock-down of SPC24 (SPC24 component of NDC80 kinetochore complex) the results were TNF reporter robust z-score 0.2; inactive. Knock-down of SPC24 (SPC24 component of NDC80 kinetochore complex) came out at: TNF reporter robust z-score 0.68; inactive. Depletion of SLC8B1 resulted in: TNF reporter robust z-score -0.94; inactive. SLC8B1 scored TNF reporter robust z-score -0.7; inactive.

Against SLC8B1, the values are TNF reporter robust z-score -1.03; inactive. Depletion of SLC8B1 came out at: TNF reporter robust z-score -0.81; inactive. SPAM1 (sperm adhesion molecule 1) gave TNF reporter robust z-score 1.74; inactive. For SPAM1 (sperm adhesion molecule 1) the deposit lists TNF reporter robust z-score -0.41; inactive. After knock-down of SPAM1 (sperm adhesion molecule 1), the record shows TNF reporter robust z-score -0.73; inactive. Silencing of SPAM1 (sperm adhesion molecule 1) came out at: TNF reporter robust z-score -0.67; inactive.
